Measured values taken from patent US7943551B2, “3-cyclopropyl-4-(3-thiobenzoyl) pyrazoles and their use as herbicides” (Bayer Cropscience AG, priority 2007, dated 2011).
Some results were stated once for a whole list of compounds, not compound by compound.

Assays:
Assay in all cases: Pre-emergence herbicidal action
Type in all cases: in vivo
Echinochloa crus galli = settings: 320 grams per hectare, visual scoring 3-4 weeks after treatment
Amaranthus retroflexus = settings: 320 g of a.i./ha, visual scoring 3-4 weeks after treatment
From the text: (§1) Seeds or rhizome pieces of mono- and dicotyledonous harmful plants are placed in sandy loam in pots of a diameter of 9 to 13 cm and covered with soil. The herbicides, formulated as emulsifiable concentrates or dusts, are applied to the surface of the covering soil in the form of aqueous dispersions or suspensions or emulsions at an application rate of 300 to 800 l of water/ha (converted), […] For further cultivation of the plants, the pots are then kept in a greenhouse under optimum conditions. The visual scoring of the damage to the harmful plants is carried out 3-4 weeks after the treatment. Here, the compounds of Nos. 1-3, 1-15, 1-44 and 1-1407 show an activity of at least 90% against Echinochloa crus galli. The compounds of Nos. 1-15, 1-45, 1-1407 and 1-1419 show an activity of at least 90% against Abutilon theophrasti. The compounds of Nos. 1-3, 1-45, 1-1406 and 1-1418 show an activity of at least 90% against Amaranthus retroflexus. The compounds of Nos. 1-44, 1-1406, 1-1407 and 1-1419 show an activity of at least 90% against Stellaria media.
(§2) The comparative tests of Tables 1 to 24 below show the superiority of the compounds according to the invention over the compounds known from the prior art.
(§3) • ABUTH Abutilon theophrasti ALOMY Alopecurus myosuroides • AMARE Amaranthus retroflexus AVEFA Avena fatua • CHEAL Chenopodium album ECHCG Echinochloa crus galli • GALAP Galium aparine LOLMU Lolium multiflorum • MATIN Matricaria inodora PHBPU Pharbitis purpureum • POLCO Fallopia convolvulus STEME Stellaria media • VERPE Veronica persica VIOTR Viola tricolor • XANST Xanthium strumarium Crop Plants • GLXMA Glycine max (soybeans) TRZAS Triticum aestivum (wheat) • ZEAMX Zea mays (corn)

Abutilon theophrasti = settings: 320 g of a.i./ha, visual scoring 3-4 weeks after treatment
From the text: Seeds or rhizome pieces of mono- and dicotyledonous harmful plants are placed in sandy loam in pots of a diameter of 9 to 13 cm and covered with soil. The herbicides, formulated as emulsifiable concentrates or dusts, are applied to the surface of the covering soil in the form of aqueous dispersions or suspensions or emulsions at an application rate of 300 to 800 l of water/ha (converted), at a dosage of 320 grams per hectare. For further cultivation of the plants, the pots are then kept in a greenhouse under optimum conditions. The visual scoring of the damage to the harmful plants is carried out 3-4 weeks after the treatment. Here, the compounds of Nos. 1-3, 1-15, 1-44 and 1-1407 show an activity of at least 90% against Echinochloa crus galli. The compounds of Nos. 1-15, 1-45, 1-1407 and 1-1419 show an activity of at least 90% against Abutilon theophrasti. The compounds of Nos. 1-3, 1-45, 1-1406 and 1-1418 show an activity of at least 90% against Amaranthus retroflexus. The compounds of Nos. 1-44, 1-1406, 1-1407 and 1-1419 show an activity of at least 90% against Stellaria media.
The comparative tests of Tables 1 to 24 below show the superiority of the compounds according to the invention over the compounds known from the prior art. […]

Stellaria media = settings: 320 grams per hectare, visual scoring 3-4 weeks after treatment
From the text: as §1, §2, §3

| Structure (SMILES) | activity against Echinochloa crus galli (Echinochloa crus galli) | Herbicidal activity in % against AMARE (Amaranthus retroflexus; listed as 1-3) | Herbicidal activity in % against ABUTH (Abutilon theophrasti) | Herbicidal activity in % against AMARE (Amaranthus retroflexus) | activity against Stellaria media (Stellaria media) |
| --- | --- | --- | --- | --- | --- |
| COCCSc1c(S(C)(=O)=O)ccc(C(=O)c2c(C3CC3)nn(C)c2O)c1Cl [No. 1-3, 4-(2-chloro-3-(2-methoxyethyl)thio-4-methylsulfonylbenzoyl)-3-cyclopropyl-5-hydroxy-1-methylpyrazole] | at least 90% | at least 90% | – | – | – |
| COCCS(=O)(=O)c1c(S(C)(=O)=O)ccc(C(=O)c2c(C3CC3)nn(C)c2O)c1Cl [No. 1-15, 4-(2-chloro-3-(2-methoxyethyl)sulfonyl-4-methylsulfonylbenzoyl)-3-cyclopropyl-5-hydroxy-1-methyl pyrazole] | at least 90% | – | at least 90% | – | – |
| Cc1c(C(=O)c2c(C3CC3)nn(C)c2O)ccc(Cl)c1SCC1CC1 [No. 1-1406, 4-(4-chloro-3′-cyclopropylmethylthio-2-methylbenzoyl)-3-cyclopropyl-5-hydroxy-1-methylpyrazole] | – | – | – | at least 90% | at least 90% |
| Cc1c(C(=O)c2c(C3CC3)nn(C)c2O)ccc(Cl)c1S(=O)(=O)CC1CC1 [No. 1-1418, 4-(4-chloro-3-cyclopropylmethylsulfonyl-2-methylbenzoyl)-3-cyclo-propyl-5-hydroxy-1-methylpyrazole] | – | – | – | at least 90% | – |
